# Data: publication doi:10.1101/2024.12.09.627564, “Cannabinoid inhibition of mechanosensitive K^+ channels” (bioRxiv, 2024)
# Experiment: Patch imaging and membrane tension calculation
# Design: species or system Xenopus laevis
# Details: 50 μM CBD; for calculated membrane tension: representative image
compound,measurement,setting,value
"C=C(C)[C@@H]1CCC(C)=C[C@H]1c1c(O)cc(CCCCC)cc1O [CBD, Cannabidiol]",effect on membrane tension,,no effect on membrane tension
same,calculated membrane tension,10 mmHg,3.88 mN/m
same,calculated membrane tension,50 mmHg,15.36 mN/m
